Reference: publication PMC12429383
No constants are given. Whether binding was seen depends on the method and setting. Binding seen in cells or lysates may run through a third protein. Some results given as binding are weak or reduced against the parent protein; the word gives no strength.

The chains behind the UniProt entries cited, without tags or fusion partners.
UniProt P70600: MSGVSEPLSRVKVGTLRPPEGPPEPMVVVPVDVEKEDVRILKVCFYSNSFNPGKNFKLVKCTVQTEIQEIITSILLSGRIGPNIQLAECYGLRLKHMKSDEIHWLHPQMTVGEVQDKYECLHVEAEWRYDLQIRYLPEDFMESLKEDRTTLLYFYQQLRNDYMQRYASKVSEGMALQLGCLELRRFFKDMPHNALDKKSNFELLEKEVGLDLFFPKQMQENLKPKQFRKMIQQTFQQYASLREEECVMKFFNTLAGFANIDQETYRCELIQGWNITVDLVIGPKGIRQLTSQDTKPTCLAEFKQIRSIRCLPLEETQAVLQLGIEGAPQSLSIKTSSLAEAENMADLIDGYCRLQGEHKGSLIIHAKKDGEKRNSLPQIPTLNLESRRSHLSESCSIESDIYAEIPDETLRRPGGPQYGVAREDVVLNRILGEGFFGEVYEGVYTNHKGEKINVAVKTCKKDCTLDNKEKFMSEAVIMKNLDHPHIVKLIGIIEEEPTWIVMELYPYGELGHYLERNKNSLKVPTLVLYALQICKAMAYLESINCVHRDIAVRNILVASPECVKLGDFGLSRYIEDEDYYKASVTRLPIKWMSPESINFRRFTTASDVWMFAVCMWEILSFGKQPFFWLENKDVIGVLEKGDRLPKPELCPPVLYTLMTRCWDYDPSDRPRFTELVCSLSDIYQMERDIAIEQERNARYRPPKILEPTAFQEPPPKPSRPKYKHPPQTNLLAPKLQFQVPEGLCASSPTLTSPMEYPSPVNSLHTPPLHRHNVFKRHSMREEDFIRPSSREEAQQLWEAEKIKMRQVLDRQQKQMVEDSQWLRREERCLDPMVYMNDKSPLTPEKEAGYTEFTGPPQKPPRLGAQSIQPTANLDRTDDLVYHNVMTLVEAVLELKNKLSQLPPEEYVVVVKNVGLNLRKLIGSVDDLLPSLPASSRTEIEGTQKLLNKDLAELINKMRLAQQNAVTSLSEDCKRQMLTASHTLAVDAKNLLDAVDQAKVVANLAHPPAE
UniProt Q9ES67: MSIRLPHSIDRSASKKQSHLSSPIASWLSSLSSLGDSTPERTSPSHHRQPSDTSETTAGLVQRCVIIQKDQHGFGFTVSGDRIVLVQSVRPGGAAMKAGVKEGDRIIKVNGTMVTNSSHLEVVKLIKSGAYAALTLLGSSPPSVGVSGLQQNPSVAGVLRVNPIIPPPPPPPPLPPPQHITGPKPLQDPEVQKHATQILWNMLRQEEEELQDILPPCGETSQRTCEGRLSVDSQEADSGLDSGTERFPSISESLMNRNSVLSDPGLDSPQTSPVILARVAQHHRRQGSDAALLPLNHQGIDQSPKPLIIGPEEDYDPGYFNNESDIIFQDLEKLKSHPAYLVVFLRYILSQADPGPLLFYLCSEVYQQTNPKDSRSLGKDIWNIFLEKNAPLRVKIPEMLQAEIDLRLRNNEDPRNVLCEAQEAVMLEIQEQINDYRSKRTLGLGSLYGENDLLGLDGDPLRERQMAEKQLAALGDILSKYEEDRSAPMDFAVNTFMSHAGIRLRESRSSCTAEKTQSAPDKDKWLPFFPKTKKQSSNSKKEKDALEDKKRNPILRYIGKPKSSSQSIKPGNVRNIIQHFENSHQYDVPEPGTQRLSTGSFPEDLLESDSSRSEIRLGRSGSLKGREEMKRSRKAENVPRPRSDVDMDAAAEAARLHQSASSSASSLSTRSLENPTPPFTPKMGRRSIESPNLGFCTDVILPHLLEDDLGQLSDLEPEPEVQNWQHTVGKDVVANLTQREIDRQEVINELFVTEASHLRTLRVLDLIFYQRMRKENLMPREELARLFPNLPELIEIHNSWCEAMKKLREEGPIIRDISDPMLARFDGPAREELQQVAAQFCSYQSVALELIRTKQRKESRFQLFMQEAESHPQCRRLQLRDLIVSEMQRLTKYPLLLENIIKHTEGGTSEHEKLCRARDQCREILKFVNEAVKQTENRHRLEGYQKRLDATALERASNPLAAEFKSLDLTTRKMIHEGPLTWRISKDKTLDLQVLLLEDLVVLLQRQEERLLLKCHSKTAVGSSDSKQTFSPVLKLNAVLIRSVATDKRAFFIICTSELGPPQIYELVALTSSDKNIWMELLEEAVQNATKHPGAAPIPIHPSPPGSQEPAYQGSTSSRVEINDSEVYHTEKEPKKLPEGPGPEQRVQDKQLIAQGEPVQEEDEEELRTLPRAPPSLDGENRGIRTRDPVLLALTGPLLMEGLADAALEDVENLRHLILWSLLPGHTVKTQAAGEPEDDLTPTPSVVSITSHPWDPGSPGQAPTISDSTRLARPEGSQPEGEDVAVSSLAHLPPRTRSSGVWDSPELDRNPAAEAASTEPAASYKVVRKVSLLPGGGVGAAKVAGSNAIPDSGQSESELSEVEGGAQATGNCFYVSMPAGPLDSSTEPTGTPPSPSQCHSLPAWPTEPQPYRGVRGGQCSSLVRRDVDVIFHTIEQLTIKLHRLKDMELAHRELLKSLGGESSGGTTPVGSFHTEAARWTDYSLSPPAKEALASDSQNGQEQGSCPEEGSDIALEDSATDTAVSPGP

Biological target: phosphorylated Pyk2 at Tyr402 (proline-rich tyrosine kinase 2) (rat (endogenous in rat caudal arterial smooth muscle)) (UniProt P70600)
Experiment: co-IP; anti-phospho-Pyk2 (Tyr402) antibody on Dynabeads Protein G, incubated 30 min with RIPA extract of endothelium-denuded rat caudal arterial smooth muscle strips (unstimulated, 60 mM K+ for 5 min, or 60 mM K+ after 10 mM sodium salicylate for 20 min); normal mouse IgG as control; Western blot of the precipitate

- binding: binds
Substance: ArhGEF11 (PDZ-RhoGEF) (from UniProt Q9ES67 1-1527)
